Results reported in patent US5932224A, “Peptides for inducing cytotoxic T lymphocyte responses to hepatitis B virus” (The Scripps Research Institute, priority 1995, dated 1999).
Not every detail of the peptide structures is certain; ends, links or a residue may be inferred. Residues, ends and D or L forms follow the SMILES beside them.

System: HLA-A2 matched target cells pulsed with the peptide
Assay: CTL response of peptide-stimulated patient PBMC against peptide-pulsed HLA-A2 matched target cells
Conditions: PBMCs from HLA-A2+ patient with acute hepatitis stimulated with individual peptide; FIG. 1

CC(C)C[C@H](NC(=O)[C@H](CC(N)=O)NC(=O)[C@H](CC(C)C)NC(=O)[C@@H](N)CC(=O)O)C(=O)NCC(=O)N[C@@H](CC(N)=O)C(=O)N[C@@H](CC(C)C)C(=O)N[C@@H](CC(N)=O)C(=O)N[C@H](C(=O)O)C(C)C [927.30] (H-DLNLGNLNV-OH)
CTL response using target cells pulsed with peptide: did not stimulate the specific CTL response
